Results on 42 sequences are retold here after PMC7819943, “Rice protein-binding microarrays: a tool to detect cis-acting elements near promoter regions in rice”.

Amino acid sequences for entries named in this document (tags omitted).
UniProt Q0JBA9, entry or part of it: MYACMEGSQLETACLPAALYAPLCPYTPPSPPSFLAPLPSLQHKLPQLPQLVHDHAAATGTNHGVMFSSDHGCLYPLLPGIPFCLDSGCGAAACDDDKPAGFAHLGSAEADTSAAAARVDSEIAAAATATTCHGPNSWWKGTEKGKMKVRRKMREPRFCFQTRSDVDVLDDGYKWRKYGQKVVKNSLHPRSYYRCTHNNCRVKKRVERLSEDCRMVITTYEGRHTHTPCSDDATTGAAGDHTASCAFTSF

The other results are listed elsewhere or left out.

The target of the experiment is OsWRKY34 (Oryza sativa, UniProt Q0JBA9 1-250). Briefly: protein-binding microarray (RPBM); PBS, 2% BSA, 51.3 ng/ul salmon testes DNA, 50 uM zinc acetate, 200 nM TF, 25 C, 1 h; high values mean tight binding. Conditions: protein: recombinant; tags: N-terminal polyhistidine and DsRed monomer fusion (pET32a); label: CyDye5-dUTP incorporated in the synthesized complementary strand; 3' TTTTT single-stranded linker to array surface; dsDNA, one strand shown. The essentials: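 A custom Agilent array was converted to double-stranded form by primer extension with Cy5-dUTP and blocked with 2% BSA. Protein at 200 nM in PBS with 2% BSA, salmon testes DNA and 50 µM zinc acetate was applied for 1 h at 25 °C, followed by washing. The proteins were polyhistidine–DsRed N-terminal fusions of transcription factors, expressed in E. coli BL21-CodonPlus and Ni–NTA-purified. The binding signal is per-feature fluorescence intensity (arbitrary units) from an Axon 4000B scanner.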
As for “GAAAAGCCACTAATCTCCAACCTCGTCTACACTTCTCCAACGGAGTCACCTAGTGCAG”, the binding signal was 8970 fluorescence intensity (a.u.). Consider “CACTTTTTATTCAGTCACTATCCTTGTGTGCTGTAATTATCGGAGTCACCTAGTGCAG”, for which the binding signal is 10700 fluorescence intensity (a.u.). Consider “CCCTCCCCTCTGCTTCCGTTCCCTTGGGTTGGGTTGTGTTCGGAGTCACCTAGTGCAG”, for which the binding signal was 8480 fluorescence intensity (a.u.). The result for “CCGCTGCCACCGCTCCTCCTAAGCTCGCCCGCCGCATCCGCGGAGTCACCTAGTGCAG” reads 8790 fluorescence intensity (a.u.); that for “GCCGTTGTCCGAAGGTTCAGCATATTGCTGACATATTGCCCGGAGTCACCTAGTGCAG”, 9380 fluorescence intensity (a.u.). The figure for “TTGTTGGTAGTCCCTTGCTTCTATATTTCTATTTTACCTTCGGAGTCACCTAGTGCAG” is 11200 fluorescence intensity (a.u.); for “GCTCTGAACATGGACTGCGCTAATACTACTCCATGCACAACGGAGTCACCTAGTGCAG” it is 9240 fluorescence intensity (a.u.). For “CCTCCTGTCACATACAAAAATATCGAATTTTTATACTATCCGGAGTCACCTAGTGCAG”, the binding signal was 8690 fluorescence intensity (a.u.).

Regarding “TCGACTTTGATTTGTACGATTGATTCCTTGAGTATATGTTCGGAGTCACCTAGTGCAG”, the binding signal was 8540 fluorescence intensity (a.u.). As for “GTTTTGCATTCTTTTGTTCATGACTGTGATGTACACTTGTCGGAGTCACCTAGTGCAG”, the binding signal was 9580 fluorescence intensity (a.u.). The figure for “ATAAGTTTAAGGACCGCCAATGCACTTTACTCTATTTTGACGGAGTCACCTAGTGCAG” is 9350 fluorescence intensity (a.u.); for “TAAATTTTCCCCACTTTCTCTCCTCTCCTTTTCTTCTCTCCGGAGTCACCTAGTGCAG” it is 10000 fluorescence intensity (a.u.). The result for “ATTTTTTTTTTCGGTCGTCCAATTATTTCAGTGTACTTTTCGGAGTCACCTAGTGCAG” reads 8310 fluorescence intensity (a.u.); that for “CTACACAGCAAAACATCATCGGCTTCCGCCCTTGCACACTCGGAGTCACCTAGTGCAG”, 10700 fluorescence intensity (a.u.); that for “ATCGTCTCTCCTTGTAGGCTAGCTGCTATACGAGAGCATGCGGAGTCACCTAGTGCAG”, 9980 fluorescence intensity (a.u.). The figure for “GCGCTGGCTCCCATGGATTCTCATATCGTCTTGCCCTCCGCGGAGTCACCTAGTGCAG” is 13200 fluorescence intensity (a.u.).

With “GCAAACTTCCACACCACCACGCCATCACCACCTCCACACCCGGAGTCACCTAGTGCAG”, the binding signal is 11700 fluorescence intensity (a.u.). Regarding “TGGGGCGGCAGGGTCTATTTTTGTAATTTTTTTGGCCGATCGGAGTCACCTAGTGCAG”, the binding signal was 9050 fluorescence intensity (a.u.).

“AATTTCCTGGGCACCGCCTGCCTACACAACGACTGGTGACCGGAGTCACCTAGTGCAG”: the binding signal is 9050 fluorescence intensity (a.u.).

In the case of “CCATCACCACCTCCCGATCCGCGCGCTTTCTCTCCCGCGCCGGAGTCACCTAGTGCAG”, the binding signal is 9090 fluorescence intensity (a.u.). The result for “TCTTCCCTTGACTCCTCTTCTCCTCTCTTTCTCTCTCCTTCGGAGTCACCTAGTGCAG” reads 11200 fluorescence intensity (a.u.). The result for “ATCACTACTAGATCAGCACTCCATCAGCTAAGGTCTTTTTCGGAGTCACCTAGTGCAG” reads 8860 fluorescence intensity (a.u.); that for “ACACATCATGAGTTTCTACAATTTTTTTTGTTCCCGCCCCCGGAGTCACCTAGTGCAG”, 8960 fluorescence intensity (a.u.). The result for “CTATAATTCTTGCATATTTTCTGCCATTTTGTTCGAATTACGGAGTCACCTAGTGCAG” reads 12600 fluorescence intensity (a.u.); that for “TGCTTGGCGTGAGTGCGTCACTTTTTTCGGTTCTTTTCCCCGGAGTCACCTAGTGCAG”, 8150 fluorescence intensity (a.u.); that for “CTCTCACTGTTTATCAAGCTTCAATTCTACATTTATTGTTCGGAGTCACCTAGTGCAG”, 10200 fluorescence intensity (a.u.). On to “AGTGCTGAACTATGAGTCTCACTATTTTGTTTCGATTTTTCGGAGTCACCTAGTGCAG”, for which the binding signal was 8220 fluorescence intensity (a.u.). The result for “GATTGATGCTAGTGGTGCTTTGGTGTTGTGAAATGTAGCCCGGAGTCACCTAGTGCAG” reads 9350 fluorescence intensity (a.u.); that for “GCTCCAACTAATACAGTTTCAGTTCAACCAGTCCAATGCACGGAGTCACCTAGTGCAG”, 9020 fluorescence intensity (a.u.); that for “AATCTTGTCTCTGCAGGCCGCCGGCGGGTGGGGAGGAGGCCGGAGTCACCTAGTGCAG”, 11200 fluorescence intensity (a.u.). The result for “AAATGTGCTAAAAAGTCAACGGTGTCAAACATTTCGAAATCGGAGTCACCTAGTGCAG” reads 16400 fluorescence intensity (a.u.); that for “GTGTTTTGTTTTTGGCAGTAGGTGCTTGCTATCTTTTCATCGGAGTCACCTAGTGCAG”, 10100 fluorescence intensity (a.u.). “CACACACACACCACCCACATTGAGCCAATTTCCTTCTCCTCGGAGTCACCTAGTGCAG”: the binding signal was 8660 fluorescence intensity (a.u.).

Regarding “ATTTTAATTTTTTTCCGTTGACTGAAATTGAAGACAGTAACGGAGTCACCTAGTGCAG”, the binding signal is 8150 fluorescence intensity (a.u.). The figure for “AAAGCCGTCGTATTGTCATCCGCCGCTCGCTGACTCATTCCGGAGTCACCTAGTGCAG” is 8310 fluorescence intensity (a.u.). The result for “GTCTTCCCGTGTCATCGTCGCCGTCATACACGCCAGCCCGCGGAGTCACCTAGTGCAG” reads 9580 fluorescence intensity (a.u.); that for “TAGGCTTCAACTTTCAACCGAACTCACCTGCCCTAATTTGCGGAGTCACCTAGTGCAG”, 11100 fluorescence intensity (a.u.); that for “CTCTCACACATTCACAGCGCAGACCACACACGATCTCACTCGGAGTCACCTAGTGCAG”, 9800 fluorescence intensity (a.u.). As for “TCACTAGTTCTTCTCGTCGTCCTCGGGCGGGCAGAGGTTCCGGAGTCACCTAGTGCAG”, the binding signal was 8110 fluorescence intensity (a.u.). The figure for “CACTTCGTCGCTCACTCGCTTGTAGTCTCCAGCCACACAACGGAGTCACCTAGTGCAG” is 11900 fluorescence intensity (a.u.); for “ATGCCTCCTGCTGCCTTATGATCTGGTTTGAATGGTTTTGCGGAGTCACCTAGTGCAG” it is 8200 fluorescence intensity (a.u.).

On to “TCATCTCGTCGCCATTGACAGACTAGCGCCGGCCTGTCCACGGAGTCACCTAGTGCAG”, for which the binding signal was 8940 fluorescence intensity (a.u.).
